Amino acid sequences for entries named in this document (tags omitted). A change or cut given only in a name is not applied to a line headed by its entry.
UniProt Q7D1A8: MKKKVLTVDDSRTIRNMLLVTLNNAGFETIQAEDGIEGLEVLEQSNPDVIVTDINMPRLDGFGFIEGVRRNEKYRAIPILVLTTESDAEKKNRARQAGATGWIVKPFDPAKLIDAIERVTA
UniProt Q7D1A5: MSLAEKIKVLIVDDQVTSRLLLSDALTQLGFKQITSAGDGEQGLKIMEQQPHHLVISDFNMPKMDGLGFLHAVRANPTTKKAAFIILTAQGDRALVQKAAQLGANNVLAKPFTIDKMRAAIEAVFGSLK

In PMC8225110, “The Divergent Key Residues of Two Agrobacterium fabrum (tumefaciens) CheY Paralogs Play a Key Role in Distinguishing Their Functions” (Microorganisms, 2021):

Tests used:
[1] = molecular target: T1, CheA-linker-Cegfp fusion protein (Agrobacterium fabrum C58) (UniProt A9CK76); experiment: split reporter; split eGFP; both fusions expressed from one plasmid under the lacZ promoter in A. fabrum deletion mutants (Δay; also Δays lacking CheS); confocal microscopy of polar fluorescence
T1 sequence: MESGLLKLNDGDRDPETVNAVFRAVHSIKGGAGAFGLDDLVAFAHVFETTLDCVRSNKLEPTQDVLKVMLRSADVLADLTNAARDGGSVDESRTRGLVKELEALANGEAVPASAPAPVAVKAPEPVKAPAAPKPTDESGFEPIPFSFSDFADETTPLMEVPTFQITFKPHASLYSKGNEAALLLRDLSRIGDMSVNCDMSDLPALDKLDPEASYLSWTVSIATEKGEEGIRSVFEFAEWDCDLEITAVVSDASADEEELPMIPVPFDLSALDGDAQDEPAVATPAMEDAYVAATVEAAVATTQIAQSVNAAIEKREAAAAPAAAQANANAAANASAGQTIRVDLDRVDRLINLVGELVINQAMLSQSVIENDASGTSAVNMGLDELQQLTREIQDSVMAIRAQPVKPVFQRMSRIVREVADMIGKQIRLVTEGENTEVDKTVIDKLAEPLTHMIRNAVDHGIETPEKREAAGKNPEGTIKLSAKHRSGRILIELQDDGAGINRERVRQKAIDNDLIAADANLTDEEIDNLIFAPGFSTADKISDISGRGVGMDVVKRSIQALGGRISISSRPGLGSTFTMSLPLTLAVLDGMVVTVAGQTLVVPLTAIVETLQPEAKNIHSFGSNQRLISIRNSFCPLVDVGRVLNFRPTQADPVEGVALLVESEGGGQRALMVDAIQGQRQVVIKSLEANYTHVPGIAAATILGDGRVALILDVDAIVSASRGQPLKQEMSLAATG

GST-FliM fusion protein = molecular target: T2, GST-FliM fusion protein (Agrobacterium fabrum C58, UniProt Q44457 1-321); experiment: pull-down; GST-FliM on glutathione-Sepharose 4B beads, crude extract of CheY-6×his in PBS with MgCl2 and without acetyl phosphate (non-phosphorylating conditions), 4 °C, 1 h; Western blot with anti-6×his antibody; only the target purified
T2 construct: Flagellar motor switch protein FliM (atu0561) of Agrobacterium fabrum C58; Cloned in pGEX-4T-1; not shown: GST, N-terminal, kept
T2 sequence (looked up): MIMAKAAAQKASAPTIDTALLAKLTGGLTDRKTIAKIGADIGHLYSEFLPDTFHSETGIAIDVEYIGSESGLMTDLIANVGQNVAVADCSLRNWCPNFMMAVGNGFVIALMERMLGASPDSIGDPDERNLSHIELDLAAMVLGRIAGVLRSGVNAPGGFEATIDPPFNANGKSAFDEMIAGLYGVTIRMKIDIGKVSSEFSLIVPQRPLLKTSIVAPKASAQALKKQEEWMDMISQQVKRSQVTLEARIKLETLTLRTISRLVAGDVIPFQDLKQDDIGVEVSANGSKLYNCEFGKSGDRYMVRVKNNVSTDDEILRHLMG

[2] = molecular target: T1, CheA-linker-Cegfp fusion protein (Agrobacterium fabrum C58); experiment: split reporter; split eGFP of CheA-Cegfp with one CheY-Negfp fusion, with the other CheY co-expressed in native form from the same plasmid; confocal microscopy of polar fluorescence

Substance	binding [1]	binding (GST-FliM fusion protein)	binding [2]
CheW1-Negfp fusion protein (Agrobacterium fabrum C58)	binds		
CheY2-6×his fusion protein (non-phosphorylating conditions) (Agrobacterium fabrum C58)		binds weakly	
native CheY2 (Agrobacterium fabrum C58)			binds

Next, values leading:

binding [1]	binding (GST-FliM fusion protein)	binding [2]	Substance
	binds weakly		CheY1-6×his fusion protein (non-phosphorylating conditions) (Agrobacterium fabrum C58)
binds		binds	CheY1-linker-Negfp fusion protein (from UniProt Q7D1A8)
binds		binds	CheY2-Negfp fusion protein (from UniProt Q7D1A5)

These are yes or no findings as the source states them, for the method shown. In cells and extracts the contact can be indirect. Binding calls can cover weak binding; strength is not graded here. Tags and fused reporters may be left off the sequences shown.
